Source: PubChem BioAssay AID1487 (National Center for Advancing Translational Sciences (NCATS), 2009)
Some of the results follow. These are further read-outs of the screen, such as a control signal, another cell line or another target. No call is given for them. Most of these compounds were active or inconclusive in the main read-out, so they are no random draw. The note in brackets gives the kind of curve behind each potency; many fits are weak.

Assay: qHTS Assay for Modulators of Lamin A Splicing
Details: HeLa LMNA splicing GFP/RFP minigene ratio, 48 h
Procedure, shortened: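 S3 HeLa cells stably expressing lamin A-EGFP splicing minigene plus DsRed2, 600 cells/well, 48 h compound exposure at 37C. Laser-scanning cytometry; analysed as GFP (500-530 nm)/RFP (575-640 nm) total intensity ratio; 0.5% DMSO vehicle.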

[1] = measured here: RFP viability control channel
[2] = measured here: GFP splicing reporter channel

COc1ccc(Nc2oc(COc3ccc(OC)cc3)nc2C#N)cc1
AC50 [1]: 31.6 µM [rising, single point]

COC(=O)c1cc(Cl)c(NC(=O)c2ccc(C(C)(C)C)cc2)cc1OC
AC50 [1]: 28.2 µM [rising, partial curve]

CC(=O)N1CCCc2cc(S(=O)(=O)N3CCCC(C(=O)N4CCN(c5ccccc5)CC4)C3)ccc21 (stereo unspecified)
AC50 [2]: 0.158 µM [rising, full curve, poor fit]

COc1ccc(N2CCN(C(=O)/C=C/c3ccco3)CC2)cc1
AC50 [2]: 4.47 µM [falling, partial curve, poor fit]

Cc1ccc(-n2ncc3c(Nc4cccc(C(=O)O)c4)ncnc32)cc1
AC50 [2]: 2 µM [falling, partial curve]
AC50 [1]: 35.5 µM [falling, partial curve, poor fit]

CCc1ccccc1NS(=O)(=O)c1ccc2[nH]cc(C(=O)N(CC)Cc3ccccc3)c(=O)c2c1
AC50 [1]: 11.2 µM [falling, partial curve, poor fit]

O=C(Nc1nc2c(F)cc(F)cc2s1)c1ccccn1
AC50 [1]: 12.6 µM [rising, partial curve]

Cc1cc(C)nc(Sc2ncnc3sc4c(c23)CCC4)n1
AC50 [1]: 17.8 µM [rising, partial curve]

CCCCCCCn1c(=N)n(CC(O)c2ccco2)c2ccccc21 (stereo unspecified)
AC50 [2]: 31.6 µM [falling, single point]

CC1CC(C)CN(C(=O)CSc2ccsc2[N+](=O)[O-])C1 (stereo unspecified)
AC50 [2]: 0.0158 µM [rising, full curve, poor fit]

COc1[nH]c2ccc(F)cc2c1C(=O)OCC1CCN(CCNS(C)(=O)=O)CC1
AC50 [2]: 5.62 µM [falling, partial curve, poor fit]
AC50 [1]: 6.31 µM [falling, single point]

CCC(C(=O)N1CCN(c2cccc(Cl)c2)CC1)c1ccccc1 (stereo unspecified)
AC50 [1]: 35.5 µM [rising, single point]

CC(=O)OCCn1c2nc(=O)[nH]c(=O)c-2nc2cc(C)c(C)cc21
AC50 [2]: 35.5 µM [falling, single point]
AC50 [1]: 1.78 µM [rising, single point]

COc1ccc(S(=O)(=O)CCC(=O)N(C)c2ccc(OC)cc2OC)cc1
AC50 [1]: 0.447 µM [rising, partial curve]

Cc1ccsc1C=Nc1ccc(O)cc1
AC50 [2]: 22.4 µM [falling, partial curve]
AC50 [1]: 12.6 µM [falling, partial curve, poor fit]

CCCCOCCCNC(=O)c1ccc([N+](=O)[O-])c(C)c1
AC50 [2]: 35.5 µM [rising, single point]
AC50 [1]: 35.5 µM [rising, single point]

COc1ccccc1-c1nnc(NC(=O)c2ccc(S(=O)(=O)N(C)C)cc2)o1
AC50 [1]: 28.2 µM [rising, partial curve, poor fit]

CCOc1ccc(C2=CS/C(=C(\C#N)c3nnc4n3CCCCC4)N2CC)cc1
AC50 [1]: 12.6 µM [rising, single point]

CCc1ccc(OCCOCC(O)CNC(C)(C)C)cc1 (stereo unspecified)
AC50 [2]: 35.5 µM [rising, single point]

CN(C)S(=O)(=O)c1ccc(Cl)c(NC(=O)CSc2nc3c(cc2C#N)C(=O)CCC3)c1
AC50 [2]: 6.31 µM [rising, partial curve]
AC50 [1]: 10 µM [rising, partial curve]

Cc1ccc(C(=O)NC(=S)N2CCN(C(=O)OC(C)(C)C)CC2)cc1Br
AC50 [2]: 3.55 µM [rising, full curve, poor fit]
AC50 [1]: 3.98 µM [rising, full curve, poor fit]

O=C(CSc1nnc(-c2ccc(S(=O)(=O)N3CCCC3)cc2)o1)NCc1ccccc1
AC50 [1]: 11.2 µM [rising, single point]

O=S(=O)(c1cccs1)N1CCN(S(=O)(=O)c2cccs2)CC1
AC50 [2]: 5.62 µM [rising, partial curve]

Cc1cc(C)c(NC(=O)c2nc3ccccc3nc2N2CCCCC2)c(C)c1
AC50 [1]: 0.01 µM [falling, full curve, poor fit]

Nc1ccc(-c2ccc3ccccc3n2)cc1
AC50 [2]: 5.62 µM [falling, partial curve, poor fit]

CCCCNC(=O)C1CCC(Cn2c(=O)c3sccc3n(Cc3ccccc3)c2=O)CC1 (stereo unspecified)
AC50 [1]: 0.0112 µM [falling, full curve, poor fit]

COc1cc(/C=C(\C#N)c2nc3ccccc3[nH]2)ccc1Oc1ccc([N+](=O)[O-])cn1
AC50 [2]: 12.6 µM [falling, partial curve]
AC50 [1]: 17.8 µM [falling, single point]

CC1CCN(S(=O)(=O)c2ccc(NC(=O)c3cccs3)cc2)CC1
AC50 [2]: 14.1 µM [rising, partial curve]
AC50 [1]: 22.4 µM [rising, partial curve]

CCc1ccc2oc(=O)cc(CN3CCN(c4ccc(F)cc4)CC3)c2c1
AC50 [2]: 11.2 µM [rising, partial curve, poor fit]
AC50 [1]: 20 µM [rising, single point]

COc1cc(NC(=O)C2CCN(C(=O)c3sc4nc[nH]c(=O)c4c3C)CC2)cc(OC)c1OC
AC50 [2]: 0.0224 µM [rising, full curve, poor fit]

CCOC(=O)C(CC)n1cnc2c(cnn2-c2ccc(Cl)cc2)c1=O (stereo unspecified)
AC50 [2]: 4.47 µM [rising, partial curve, poor fit]
AC50 [1]: 12.6 µM [rising, partial curve, poor fit]

CCCCNC(=O)CSc1nc2cc3c(cc2c(=O)n1CCCC(=O)NCCc1ccc(OC)c(OC)c1)OCO3
AC50 [1]: 1 µM [falling, partial curve]

COc1ccc2c(c1)SC1=NCCS(=O)(=O)N12
AC50 [2]: 1.26 µM [rising, full curve, poor fit]

COC(=O)C(CCCN1C(=O)c2ccccc2C1=O)(NC(C)=O)c1nn[nH]n1 (stereo unspecified)
AC50 [1]: 0.0708 µM [falling, full curve]

O=c1c2c(nc(NCCO)n1CC1CCCCC1)-c1ccccc1CC21CCCC1
AC50 [2]: 22.4 µM [falling, single point]
AC50 [1]: 22.4 µM [falling, single point]

O=C(/C=C1\NC2(CCCC2)Cc2ccccc21)C(=O)N/N=C/c1ccc(O)c(O)c1
AC50 [2]: 35.5 µM [falling, single point]

O=C(NC1CCCCC1)c1ccc(S(=O)(=O)c2ccccc2Cl)c([N+](=O)[O-])c1
AC50 [2]: 35.5 µM [falling, single point]
AC50 [1]: 35.5 µM [falling, single point]

COc1ccc(C(=O)Nc2ccc(C(F)(F)F)n(C)c2=O)cc1
AC50 [1]: 1.58 µM [rising, full curve, poor fit]

NC(=S)NN=C(Cc1ccccc1)Cc1ccccc1
AC50 [2]: 35.5 µM [falling, partial curve, poor fit]
AC50 [1]: 35.5 µM [falling, partial curve]

Nc1nc(Cl)cc(Sc2ccc3ccccc3c2)n1
AC50 [2]: 35.5 µM [falling, single point]
AC50 [1]: 35.5 µM [falling, single point]

O=c1c2ccccc2c(C=NCCCN2CCOCC2)c(O)n1Cc1ccccc1
AC50 [2]: 15.8 µM [rising, single point]
AC50 [1]: 35.5 µM [rising, single point]

O=C(Nc1nc2ccccc2[nH]1)C12CC3CC(CC(C3)C1)C2
AC50 [1]: 35.5 µM [rising, single point]

CCC(CC)C(=O)N(CCc1ccc(OC)cc1)Cc1nc2ccccc2c(=O)[nH]1
AC50 [2]: 22.4 µM [rising, single point]
AC50 [1]: 35.5 µM [rising, single point]

O=C1C=C(Nc2ccccc2)c2ccccc2C1=O
AC50 [2]: 11.2 µM [falling, partial curve]
AC50 [1]: 35.5 µM [falling, single point]

CCOc1cc(C=C(C(=O)OC)C(=O)OC)ccc1OCc1ccc([N+](=O)[O-])cc1
AC50 [2]: 8.91 µM [falling, partial curve, poor fit]
AC50 [1]: 11.2 µM [falling, partial curve]

Clc1ccccc1-c1ccc2ncnc(NCc3cccnc3)c2c1
AC50 [2]: 15.8 µM [falling, single point]
AC50 [1]: 25.1 µM [falling, single point]

Cc1ccc(C(=O)NCCSc2ccc(Cl)cc2)cc1[N+](=O)[O-]
AC50 [2]: 25.1 µM [rising, partial curve, poor fit]
AC50 [1]: 35.5 µM [falling, single point]

Cc1nc2ncnn2c(N2CCN(C(=O)Cc3cccs3)CC2)c1C
AC50 [2]: 7.08 µM [rising, partial curve]
AC50 [1]: 11.2 µM [rising, partial curve]

O=C(c1ccccc1F)N1c2ncnn2C2(CCCCC2)[C@@H]2CCCC[C@@H]21
AC50 [2]: 0.794 µM [falling, full curve, poor fit]
AC50 [1]: 0.282 µM [falling, partial curve]

COc1ccc(C2=C(C)C(N3CCC(C(=O)Nc4ccccc4F)CC3)=NS2(=O)=O)cc1
AC50 [2]: 12.6 µM [falling, partial curve, poor fit]
AC50 [1]: 11.2 µM [falling, partial curve]

COC(=O)c1ccccc1NC(=O)COC(=O)CSCC(=O)N1CCOCC1
AC50 [1]: 0.316 µM [falling, full curve, poor fit]

CCOc1cccc(C(=O)NC(=S)Nc2cccc(C)c2)c1
AC50 [2]: 14.1 µM [rising, partial curve]
